Laboratory results as given in article PMC5781335, “Identification of danthron as an isoform-specific inhibitor of HEME OXYGENASE-1/cytochrome P450 reductase interaction with anti-tumor activity” (Journal of Biomedical Science, 2018).
Results are given in words; binding and its absence hold for the method and conditions named. Binding seen in cells or lysates may run through a third protein. Some results given as binding are weak or reduced against the parent protein; the word gives no strength. Where a sequence is shown, tags or fusion partners need not be part of it.

Target: T1, N-terminal-luciferase-fused HO-2 construct (Luc-HO-2) (human) (UniProt P30519)
T1 sequence: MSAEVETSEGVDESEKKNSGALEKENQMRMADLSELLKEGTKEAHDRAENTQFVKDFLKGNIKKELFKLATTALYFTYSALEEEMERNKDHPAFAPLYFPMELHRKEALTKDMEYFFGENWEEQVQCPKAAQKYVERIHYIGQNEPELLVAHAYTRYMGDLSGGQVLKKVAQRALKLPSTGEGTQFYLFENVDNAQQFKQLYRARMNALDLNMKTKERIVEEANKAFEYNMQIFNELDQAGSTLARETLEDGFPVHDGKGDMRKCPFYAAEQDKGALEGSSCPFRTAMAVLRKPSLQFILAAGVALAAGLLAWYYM
Assay: FRET or BRET; BRET donor saturation in live HEK293T cells: constant Luc-HO-1 or Luc-HO-2 plasmid (0.25 ug) and increasing CPR-GFP or GFP plasmid (0 to 0.875 ug); coelenterazine 400a; one-site saturation binding fit, KD referred to as BRET50; no compound

B1: CPR construct with its carboxyl-terminus fused to GFP (CPR-GFP) (enzyme, UniProt P16435 1-677)
chain: MGDSHVDTSSTVSEAVAEEVSLFSMTDMILFSLIVGLLTYWFLFRKKKEEVPEFTKIQTLTSSVRESSFVEKMKKTGRNIIVFYGSQTGTAEEFANRLSKDAHRYGMRGMSADPEEYDLADLSSLPEIDNALVVFCMATYGEGDPTDNAQDFYDWLQETDVDLSGVKFAVFGLGNKTYEHFNAMGKYVDKRLEQLGAQRIFELGLGDDDGNLEEDFITWREQFWPAVCEHFGVEATGEESSIRQYELVVHTDIDAAKVYMGEMGRLKSYENQKPPFDAKNPFLAAVTTNRKLNQGTERHLMHLELDISDSKIRYESGDHVAVYPANDSALVNQLGKILGADLDVVMSLNNLDEESNKKHPFPCPTSYRTALTYYLDITNPPRTNVLYELAQYASEPSEQELLRKMASSSGEGKELYLSWVVEARRHILAILQDCPSLRPPIDHLCELLPRLQARYYSIASSSKVHPNSVHICAVVVEYETKAGRINKGVATNWLRAKEPAGENGGRALVPMFVRKSQFRLPFKATTPVIMVGPGTGVAPFIGFIQERAWLRQQGKEVGETLLYYGCRRSDEDYLYREELAQFHRDGALTQLNVAFSREQSHKVYVQHLLKQDREHLWKLIEGGAHIYVCGDARNMARDVQNTFYDIVAELGAMEHAQAVDYIKKLMTKGRYSLDVWS
binding: binds
